Measured values taken from patent US7056908B2, “Pharmaceutical compositions and methods for preventing skin tumor formation and causing regression of existing tumors” (priority 1991, dated 2006).
At least one compound was matched to its structure with a doubt left.

Tested on: primary keratinocytes
Assay: Epidermal transglutaminase activity in primary keratinocytes
Assay type: cell-based, mouse
Conditions: 9 hours; 1.4 mM Ca2+ medium
Procedure: Enzyme Assays. Activity of epidermal transglutaminase was determined by measuring cross-linking of ^3H-putrescine to dimethylcasein (20). Cell lysates were incubated at […] for 10 minutes to inactivate tissue transglutaminase. Ornithine decarboxylase activity of cell lysates was determined by quantifying release of ^14CO2 from ^14C-ornithine (Sako, T. et al, “Partial parallelism and partial blockade by bryostatin 1 of effects of phorbol ester tumor promoters on primary mouse epidermal cells,” Cancer Res., 47: 5445–5450, 1987).
Epidermal transglutaminase activity is elevated in terminally differentiating keratinocytes both in vivo and in vitro. […] Control cultures (0 nM dose) were treated with 0.1% DMSO. Each point is the average of duplicate dishes with the range indicated by error bars.

CCCCCCCCCCCCCC(=O)O[C@@H]1[C@@H](C)[C@@]2(O)[C@@H](C=C(CO)C[C@]3(O)C(=O)C(C)=C[C@@H]23)[C@H]2C(C)(C)[C@]12OC(C)=O [TPA, 12-0-tetradecanoylphorbol-13-acetate, reference compound]
doses at which activation of transglutaminase occurs: 0.01 to 10 µM
